For some assays here: For at least one compound, name, drawing or mass did not settle the structure. Some of these results come from one statement about several compounds together.
Legend:
11-18 NSCLC cell line = experiment: Alamar blue proliferation assay, 11-18; assay type: cell-based; details: 11-18, 72 hours, FIG. 14, FIG. 17
Description: (§1) The experiments have been performed in the following way. Three thousand cells in suspension in the medium normally used to grow these particular cells have been placed in an individual well within a 96 well tissue culture plate. Following cell attachment, the drugs have added to the wells to achieve the final indicated concentration. Subsequently, the cells were incubated for 72 hours in a standard tissue culture incubator at 37 degrees Celsius in an atmosphere containing 5% CO2. Following 66 hours, Alamar blue was added to the cells. Six hours later (72 hours from the addition of drug) the 96 well plate was placed in a fluorescence plate reader to measure for Alamar blue fluorescence (excitation wavelength of 540-570 nm (peak excitation is 560 nm)). Fluorescence emission was read at 580-610 nm (peak emission is 590 nm). This enabled the determination of the number of live cells present in each well. Wells containing each drug were compared to control wells where no drug was added. In each experiment, each condition was performed in multiple technical repeats of between four and eight times, by using between four and eight wells that were treated identically Each and every experiment was repeated at least three times on different days. In the data shown here, a representative example of each experiment is shown.

[1] = system: LOVO colorectal cell line; experiment: Alamar blue proliferation assay, LOVO; assay type: cell-based; details: 72 hours, FIG. 7, FIG. 10
Description: as §1, with “Following cell attachment, the drugs have added to the wells to achieve the final indicated concentration.” left out, “days.” for “days. In the data shown here, a representative example of each experiment is shown.”

DLD1 CRC cell line = experiment: Alamar blue proliferation assay, DLD1; assay type: cell-based; details: DLD1, 72 hours, FIG. 7, FIG. 9, FIG. 20
Description: as §1, with “Following cell attachment, the drugs have added to the wells to achieve the final indicated concentration.” left out, “days.” for “days. In the data shown here, a representative example of each experiment is shown.”

HCT15 CRC cell line = experiment: Alamar blue proliferation assay, HCT15; assay type: cell-based; details: HCT15, 72 hours, FIG. 7, FIG. 9, FIG. 19, FIG. 20
Description: as §1, with “Following cell attachment, the drugs have added to the wells to achieve the final indicated concentration.” left out, “days.” for “days. In the data shown here, a representative example of each experiment is shown.”

[2] = system: pancreatic cancer cell lines; experiment: Alamar blue proliferation assay, pancreatic cancer cell lines; assay type: cell-based; details: range or maximum over the pancreatic cancer cell lines, 72 hours, FIG. 11, FIG. 12
CRC cell line HT29 = experiment: Alamar blue proliferation assay, HT29; assay type: cell-based; details: HT29, 72 hours, monotherapy, FIG. 13
Description: as §1

[3] = system: NSCLC patients with KRAS mutations; details: NCT01362296; cited from earlier work

| Structure (SMILES) | inhibitory effect on proliferation (in words) (11-18 NSCLC cell line) | inhibitory effect on proliferation (in words) [1] | inhibitory effect on proliferation (in words) (DLD1 CRC cell line) | inhibitory effect on proliferation (in words) (HCT15 CRC cell line) | inhibition of proliferation [2] [%] | inhibitory effect on proliferation (in words) (CRC cell line HT29) | clinical benefit [3] |
| --- | --- | --- | --- | --- | --- | --- | --- |
| COc1cc2c(Nc3ccc(Br)cc3F)ncnc2cc1OCC1CCN(C)CC1 [vandetanib] | higher level of inhibition |  |  |  |  |  |  |
| CC(=O)Nc1cccc(-n2c(=O)n(C3CC3)c(=O)c3c(Nc4ccc(I)cc4F)n(C)c(=O)c(C)c32)c1 [Trametinib] |  | variable, but significant, inhibitory effect | variable, but significant, inhibitory effect | variable, but significant, inhibitory effect | ≤ 30 | significant inhibitory effect | failed to show clinical benefit |
| CCN1CCC(n2cc(CNc3cc(Cl)c4ncc(C#N)c(Nc5ccc(F)c(Cl)c5)c4c3)nn2)CC1 [COT inhibitor, 3-Quinolinecarbonitrile, 8-chloro-4-[(3-chloro-4-fluorophenyl)amino]-6-[[[1-(1-ethyl-4-piperidinyl)-1H-1,2,3-triazol-4-yl]methyl]amino]-3-quinolinecarbonitrile] |  |  |  |  | ≤ 30 |  |  |

From US20220313700A1, “METHODS FOR TREATING MAP3K8 POSITIVE CANCERS” (CELL RESPONSE, INC., priority 2019, published 2022)
